Assay results published in paper PMC5316833.
No constants are given. Whether binding was seen depends on the method and setting. In cells and extracts the contact can be indirect. Some entries that bind do so weakly or less than the wild type.

Chains of the proteins cited; added tags and fusions are not shown.
UniProt Q86WV6: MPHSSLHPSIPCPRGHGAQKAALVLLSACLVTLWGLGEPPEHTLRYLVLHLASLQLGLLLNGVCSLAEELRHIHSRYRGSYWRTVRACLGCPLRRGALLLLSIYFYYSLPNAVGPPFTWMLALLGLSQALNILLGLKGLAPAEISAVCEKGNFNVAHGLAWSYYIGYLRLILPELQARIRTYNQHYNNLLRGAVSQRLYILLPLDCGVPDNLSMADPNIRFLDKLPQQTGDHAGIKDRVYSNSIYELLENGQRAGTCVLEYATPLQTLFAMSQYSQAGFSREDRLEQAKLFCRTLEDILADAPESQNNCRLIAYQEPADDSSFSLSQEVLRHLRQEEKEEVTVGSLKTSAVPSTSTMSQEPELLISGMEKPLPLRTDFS
UniProt Q16666: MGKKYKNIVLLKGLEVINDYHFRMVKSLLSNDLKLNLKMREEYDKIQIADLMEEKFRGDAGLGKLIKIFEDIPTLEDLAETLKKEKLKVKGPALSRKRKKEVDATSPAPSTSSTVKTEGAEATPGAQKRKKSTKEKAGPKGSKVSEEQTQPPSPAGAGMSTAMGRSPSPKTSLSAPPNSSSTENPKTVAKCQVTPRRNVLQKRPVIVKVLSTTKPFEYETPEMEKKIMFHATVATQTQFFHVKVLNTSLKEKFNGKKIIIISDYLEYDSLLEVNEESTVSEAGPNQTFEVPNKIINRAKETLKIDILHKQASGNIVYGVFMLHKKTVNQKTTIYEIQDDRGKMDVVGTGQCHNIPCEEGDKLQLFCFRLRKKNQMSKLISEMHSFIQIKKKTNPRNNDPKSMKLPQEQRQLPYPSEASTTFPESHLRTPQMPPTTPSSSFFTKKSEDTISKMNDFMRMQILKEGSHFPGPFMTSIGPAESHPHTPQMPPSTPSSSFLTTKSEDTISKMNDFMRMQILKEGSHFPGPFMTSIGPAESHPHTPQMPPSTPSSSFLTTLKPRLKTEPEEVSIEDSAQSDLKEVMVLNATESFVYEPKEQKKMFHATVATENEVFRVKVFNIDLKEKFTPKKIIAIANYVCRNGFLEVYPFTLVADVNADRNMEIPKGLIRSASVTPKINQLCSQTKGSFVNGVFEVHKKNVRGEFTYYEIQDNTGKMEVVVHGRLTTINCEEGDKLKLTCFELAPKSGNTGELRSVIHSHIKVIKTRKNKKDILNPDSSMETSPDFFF

Molecular target: STING, endogenous in HaCaT keratinocytes (human (endogenous in HaCaT)) (UniProt Q86WV6)
Assay: co-IP; STING immunoprecipitated from HaCaT cells transfected with 5 ug/ml HT DNA for the times indicated; western blot

- binding: binds weakly
Substance: interferon-γ inducible protein 16 (IFI16), endogenous in HaCaT keratinocytes (from UniProt Q16666 1-785)
